Assay results reported in patent publication US20100069343A1, “Methods of predicting steroid responsiveness with Il-1RII” (priority 2008, published 2010).
At least one compound was matched to its structure with a doubt left.

System: mIL-1RII
Experiment: In vitro dexamethasone challenge of cultured PBMC, mIL-1RII by Q-RT-PCR
Assay type: cell-based, human

C[C@@H]1C[C@H]2[C@@H]3CCC4=CC(=O)C=C[C@]4(C)[C@@]3(F)[C@@H](O)C[C@]2(C)[C@@]1(O)C(=O)CO [dexamethasone]
mIL-1RII expression in response to in vitro dexamethasone stimulation (PBMC of non-responders, fold change far smaller than for responders): increased expression
mIL-1RII expression in response to dexamethasone stimulation in vitro (pre-treatment PBMC cultures from clinical steroid responders, 16 hours): dramatically augmented mIL-1RII expression
